Data reported in the supplement of paper PMC3334620.
Over roughly 33,000 sequences, “E-score (-0.5 to 0.5)” has its median near -0.0014; the highest 2% begin near 0.25. Some of the results follow.

Target: T1, Cad1 (UniProt P24813)
T1 sequence: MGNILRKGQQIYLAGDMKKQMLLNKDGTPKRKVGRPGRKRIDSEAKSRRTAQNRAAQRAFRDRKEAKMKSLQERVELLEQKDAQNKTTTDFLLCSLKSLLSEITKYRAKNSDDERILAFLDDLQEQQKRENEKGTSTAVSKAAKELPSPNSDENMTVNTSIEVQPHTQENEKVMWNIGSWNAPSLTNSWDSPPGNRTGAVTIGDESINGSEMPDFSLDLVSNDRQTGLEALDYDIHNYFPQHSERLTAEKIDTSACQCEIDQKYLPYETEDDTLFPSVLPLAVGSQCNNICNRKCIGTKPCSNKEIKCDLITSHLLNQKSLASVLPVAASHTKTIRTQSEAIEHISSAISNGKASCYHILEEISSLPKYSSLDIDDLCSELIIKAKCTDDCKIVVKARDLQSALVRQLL
Assay: PBM E-score (8-mer binding enrichment) (E-score (-0.5 to 0.5)); higher = stronger / more preferred TF binding
Conditions: protein concentration: 100 nM; construct: GST-full length
Summary of the method: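 Yeast transcription factors carrying a GST tag, as full-length proteins or DNA-binding domains, were produced by PURExpress in vitro transcription/translation. About 100-200 nM protein was applied to universal all-10-mer Agilent arrays, double-stranded by primer extension on fresh or once-stripped slides. Bound protein was detected with fluorescent anti-GST, and scans were normalised with masliner. The Universal PBM Analysis Suite gave each ungapped eight-base word, pooled with its reverse complement, an E-score, a modified Wilcoxon-Mann-Whitney statistic.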

Sequence	PBM E-score
ATAAATAG	0.121
CTGCAGAC	0.0731
CAGAATAA	0.104
AGGCCTAG	-0.139
AACCCTAT	0.0637
AGTTCAAA	0.0853
GCTCAATA	0.0491
CCAGATAC	0.0244
GGTGCGAC	-0.177
CAATCTAC	-0.0979
CCGGCATA	-0.0316
CGTCTAAA	-0.136
GCTCGGCA	0.0523
CTGAGTAC	-0.06
GTCTATTA	-0.0296
CTTTAGAC	-0.141
AATTCCCC	0.11
CGTGGTTC	-0.122
CACCCGTG	-0.184
CTAGGAAG	-0.0579
TCCTGTCA	0.103
TCAGTAGA	-0.0953
AAGTACAT	0.0691
GGAATGAA	0.162
ACTGCCCC	-0.052

Sequence	PBM E-score
AAGTTCGC	-0.0383
CTGTAATA	0.143
ATAAAAAT	0.152
CCCGGGGA	-0.231
CTCGAGCC	0.0755
AAGAACGC	0.0173
ATTGGTTG	0.0297
AGATCTTC	-0.083
ATTGCTGA	0.223
GATAGAAC	0.0144
ATCCGGAC	0.131
CCGGCCAG	-0.109
GAATGTAC	0.0593
CCCCATTA	-0.211
ATTTACAC	-0.065
CGGCTAAC	0.182
GATTTCCC	0.118
ATTAGGAA	0.119
AACGTTAA	0.167
AGCGGACT	-0.253
ATACTAGC	0.0804
GATGACTA	0.172
GGATCAAC	0.0489
CAATGTAC	-0.165
ATAAGGTA	0.0374

Sequence	PBM E-score
TCCTTCGA	-0.054
GATCGAAA	0.128
AAGAGTTC	-0.156
GAAGATTC	0.0467
GAAAGTTC	-0.0406
ACAACGCT	-0.0443
AGTAGGTA	-0.0597
CTTTCGCC	-0.0927
GAACACTC	0.0646
CCGCCTAA	-0.0319
GCTGCCGA	-0.0957
GTACTCTA	-0.162
CGGTAGAC	0.00118
AATTGCGA	0.0416
AACGTCCT	-0.0973
AGACAAGA	0.0567
TAACACAA	0.178
AGCTTGGA	-0.205
ACAGGTCC	-0.124
AATATCAA	0.138
ACGCTGCA	-0.0162
CCGAGAAC	0.0446
GCAAATCA	0.101
ATATCGTC	0.0847
AACCTCTT	0.134

Sequence	PBM E-score
AACGCTAC	-0.162
AGGATCCA	-0.0192
AAGCTCAT	-0.026
CCTCACCC	-0.258
GCTCTCAC	-0.199
GCTACCGA	0.0341
CGCCTGCC	-0.109
AAGTCCGC	0.0704
CTCCGCTA	-0.0531
ACAGAACG	-0.172
AGGTCCGG	0.0244
CCCCTGTC	-0.385
CCGTTTTC	0.0314
ATAATATG	0.165
AGGCCTAA	0.213
AACTCCCA	-0.132
ACACCTTG	-0.0562
CACGAAAA	0.161
GATCCCTA	-0.178
GTCGGTGA	-0.13
ACCTTGTA	-0.0686
AAGCTGCC	0.0151
AATCCTCA	-0.0804
CAAAACTA	0.143
GACGCACC	0.0198

Sequence	PBM E-score
CGCTATCA	0.114
GGATCGAA	0.045
AAATAGCG	0.155
CAACCGTA	-0.195
ACAAAACA	0.0397
CCGGACGC	-0.00894
AGTGGTGA	0.0973
AGCCATAG	-0.123
AGTTGCAG	-0.0261
GTTAGTAA	0.422
AAGACTTG	-0.072
ATGTAGTG	0.0537
CTCACAGA	0.0605
GTTATAAA	0.184
ACTTGATA	0.148
CTGCGCCC	-0.178
CCTTTACC	-0.273
CGATTGCG	0.0341
AAAGCGCA	-0.0636
CTAAAATA	0.0866
TGGGCAAA	-0.136
CGACTCCG	-0.15
AAATAATC	0.198
ACGCGTTC	0.213
CCACGAAA	-0.0499

Sequence	PBM E-score
CCCTCCCG	-0.226
GAGCCATC	-0.148
ACTCGGCC	0.0273
CATGCCAA	0.0289
ATGAAAGA	0.0683
AACTCCCG	0.207
TTACTCAA	0.0484
ATGCATAC	0.0894
CTTCCCCC	-0.435
CAGTCGGA	-0.00739
AGATCTAC	-0.0216
ATAGATGC	-0.112
GCGGGCGA	0.0601
AAGTTTTG	0.114
CGAAACGA	0.0421
GACCCGTA	-0.122
CTGAGTGC	-0.18
CTTGGTTA	0.142
CTACTAAA	0.0417
CCGGGCCA	-0.211
ATAAATAC	0.252
GTAAAGCA	0.0819
AAGTAATG	0.0383
AAGCGATA	0.103
AATGCTAG	-0.133

Sequence	PBM E-score
AGTTCGCC	-0.0488
ATGTGGCA	-0.0532
CGGACGGC	0.0427
CAACTCTA	-0.143
CGGAGATC	-0.095
CGCTACAA	0.0119
GTCAATAA	-0.0291
TATGATGA	0.129
ACCTTATG	0.042
ACGCCGTC	0.048
AAGAACTG	-0.00034
ACTAATGC	0.275
GGCGTCGA	0.191
ATACGCAC	0.129
ATCGTCCA	-0.101
AGCCTGAT	0.0339
CTCAGACA	0.171
AATCATTG	0.103
TGTGGGAA	-0.0527
CCGACCTC	-0.0414
AAAATGGG	-0.157
CACATTAC	0.226
AGCTCGGC	0.0761
AGCCACTA	-0.0815
CGGTCATC	-0.0838

Exported in markdown: part of the list above

| Sequence | PBM E-score |
| --- | --- |
| CGGAGATC | -0.095 |
| ACTAATGC | 0.275 |

Additional results follow:

Sequence	PBM E-score
GCTACATA	-0.00397
CCACGACC	-0.0775
AGCTACTC	-0.142
GAGAAGGA	-0.0712
CACTATAG	0.0879
ACGTGCGG	0.0511
CTCTTCTA	-0.275
ATATCCTA	0.0397
GAATCTCA	-0.169
CTCAGATC	0.0284
GAAGGTAA	0.0658
GGATTTAC	0.176
CCCCACGG	-0.201
TACACCAA	0.11
CCACAGGA	-0.184
AAGAGCCC	-0.152
CCAAAACG	0.0484
ATGTCGGC	-0.145
TACCAAGA	0.107
CCCCAGCA	-0.117
GCAGTTGA	0.177
AACTGCCC	-0.131
ACAGTTTC	0.162
TCGCAGAA	-0.192
AGGCCACT	0.0486

At a glance, some entries already given.
Sequence	PBM E-score
GAGAAGGA	-0.0712
CACTATAG	0.0879
ACGTGCGG	0.0511
CTCTTCTA	-0.275
ATATCCTA	0.0397
GAATCTCA	-0.169
CTCAGATC	0.0284

(list continues)

Sequence	PBM E-score
AATAGTCT	-0.0386
ATTCCCTA	0.0554
AAGCGCCA	-0.112
CCTTTTCA	-0.0603
CTGGCGTC	-0.223
CACCCGAC	-0.0906
ACTTCAAT	0.0775
ATTGTTGC	0.122
AGTCCAAA	-0.0797
CAGGCTCA	-0.0756
GGTGATCA	-0.00238
GGTTATGA	-0.00032
AAGCTCCC	-0.192
CGTACACC	-0.149
GCCCCGAC	-0.175
ACGGAGTA	-0.0145
AGACATTG	-0.0268
TACTGAAA	0.235
GGCTAAGA	-0.169
